From PubChem BioAssay AID2685 (National Center for Advancing Translational Sciences (NCATS), 2010)
The other results are listed elsewhere or left out. Further columns of the screen follow, without active or inactive calls. Most of these compounds were active or inconclusive in the main read-out, so they are no random draw. Words in brackets tell the shape of the fitted curve; partial curves, single points and poor fits give uncertain potencies.

Assay: qHTS Assay for Lipid Storage Modulators in Drosophila S3 Cells;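 on cell number change: cells counted by Cell Tracker Red CMTPX staining in the red channel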
Details: BODIPY lipid droplet fluorescence, 18-24 h; for cell number change: measured here: cell count max response, cells fed with added oleic acid
Method in brief: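 Laser-scanning cytometry quantifies lipid droplet accumulation (500–530 nm total intensity; droplet/cell object ratio) in oleic acid-fed (400 uM added) Drosophila S3 cells treated with a concentration series. 20 uM Triacsin C defined 100% inhibition.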

[1] = measured here: cell number channel AC50, cells fed with added oleic acid
[2] = measured here: lipid fluorescence (Fed channel) AC50, cells fed with added oleic acid

Question: For `Cc1ccc(NC(=O)CN2C(=O)S/C(=C/c3ccc(-c4cc(C(=O)O)ccc4C)o3)C2=O)cc1C`, which cell number change is on record?
Answer: -34.4%

Question: And the AC50 [1]?
Answer: 29.1 µM [falling, single point]

Question: For `CCSc1nnc(NC(=O)c2ccco2)s1`, which cell number change is on record?
Answer: 22.9%

Question: And the AC50 [2]?
Answer: 0.0058 µM [falling, full curve, poor fit]

Question: Which cell number change does the source give for `O=C(COC(=O)CC1CC2CCC1C2)NC(=O)NCc1ccco1` (centres undefined) here?
Answer: -4.16%

Question: And the AC50 [1]?
Answer: 0.13 µM [rising, full curve, poor fit]

Question: With `Cn1ccnc1C(=O)c1cc(SCC(=O)N2CCOCC2)nc2ccccc12` as the compound, how does the AC50 [2] read?
Answer: 0.411 µM [falling, single point]

Question: Which results are given for `Cc1c(NC(=O)C2(c3ccccc3)CCCC2)c(=O)n(-c2ccccc2)n1C`?
Answer: cell number change: -8.32%; AC50 [1]: 0.103 µM [falling, full curve, poor fit]; AC50 [2]: 2.31 µM [falling, single point]

Question: Which cell number change does the source give for `Cc1cc(C)c(S(=O)(=O)N2CCCC(C(=O)NCc3ccccn3)C2)c(C)c1` (centres undefined) here?
Answer: 15.1%

Question: Which cell number change does the source give for `Clc1ccc2c(N/N=C/c3ccccc3Br)ccnc2c1` here?
Answer: -84.9%

Question: What about the AC50 [1] of the same compound?
Answer: 29.1 µM [falling, single point]

Question: Which AC50 [2] does the source give for `COc1ccccc1CNS(=O)(=O)c1cc2c3c(c1)CCC(=O)N3CCC2` here?
Answer: 1.84 µM [rising, partial curve]

Question: Which cell number change does the source give for `COCCn1c(NCc2ccccc2)nc2c1c(=O)[nH]c(=O)n2C` here?
Answer: 14.4%

Question: Which cell number change does the source give for `CC1=NNC(=O)C1CCC(=O)N/N=C/c1ccc(Cl)cc1Cl` (centres undefined) here?
Answer: 10.5%

Question: And the AC50 [2]?
Answer: 2.91 µM [rising, partial curve]

Question: Which results are given for `Cc1cc(NC(=O)c2ccc3c(c2)OCO3)no1`?
Answer: cell number change: -2.83%; AC50 [2]: 0.517 µM [rising, full curve, poor fit]

Question: What does the source list for `CN(C)S(=O)(=O)c1ccc(-c2cn3ccccc3n2)cc1`?
Answer: cell number change: 80.3%; AC50 [1]: 18.4 µM [rising, single point]; AC50 [2]: 29.1 µM [rising, single point]

Question: With `COc1ccc(OC)c2sc(NC(=O)C3CC3)nc12` as the compound, how does the cell number change read?
Answer: 3.2%

Question: With `Cc1cc(C(C)(C)C)cc(C)c1COC(=O)c1cccnc1` as the compound, how does the cell number change read?
Answer: 13.5%

Question: What does the source list for `CC(=O)c1cccc(NC(=O)N[C@@H](CC(C)C)C(=O)O)c1`?
Answer: cell number change: 3.14%; AC50 [2]: 0.146 µM [falling, full curve]

Question: Which cell number change does the source give for `O=c1c2ccccc2ccc2ccc(P(=O)(O)O)cc12` here?
Answer: 2.37%

Question: For `CC(OC(=O)CC1CCCCC1)C(=O)Nc1ccc(F)cc1` (centres undefined), which AC50 [2] is on record?
Answer: 0.731 µM [falling, single point]

Question: For `S=c1[nH]nc(-c2ccccn2)n1/N=C/c1cccc2ccccc12`, which AC50 [2] is on record?
Answer: 29.1 µM [rising, single point]

Question: For `Cc1ccc(S(=O)(=O)NCCC(=O)NNC(=O)C2COc3ccccc3O2)cc1` (centres undefined), which cell number change is on record?
Answer: 25.6%

Question: And the AC50 [2]?
Answer: 2.59 µM [falling, single point]

Question: For `CCOC(=O)/C=c1\s/c(=C\c2ccccc2OC)c(=O)n1CC(=O)N1CCOCC1`, which cell number change is on record?
Answer: -16.5%

Question: With `CC1=C(C(=O)Nc2ccccc2)C2(CCCCC2)C(C(N)=O)C(=S)N1` (centres undefined) as the compound, how does the cell number change read?
Answer: 4.49%

Question: And the AC50 [1]?
Answer: 6.51 µM [rising, single point]

Question: What does the source list for `CN(C)S(=O)(=O)c1cccc(CNCC2COc3ccccc3O2)c1` (centres undefined)?
Answer: cell number change: 12%; AC50 [2]: 0.326 µM [rising, full curve, poor fit]

Question: With `CC1(C)OC(=O)C=C[C@]2(C)[C@H]3CC[C@@]4(C)[C@H](c5ccoc5)OC(=O)[C@H]5O[C@]54[C@]3(C)C(=O)C[C@@H]12` as the compound, how does the cell number change read?
Answer: -2.09%

Question: With `CCn1cc(C(=O)NCC2CCCO2)c(=O)c2cc(S(=O)(=O)N3CCCCCC3)ccc21` (centres undefined) as the compound, how does the AC50 [2] read?
Answer: 1.64 µM [rising, full curve, poor fit]

Question: For `Cc1cc(C(=O)NNC(=O)c2ccc(C(F)(F)F)cc2)no1`, which cell number change is on record?
Answer: 31%

Question: And the AC50 [1]?
Answer: 25.9 µM [rising, single point]

Question: And the AC50 [2]?
Answer: 20.6 µM [rising, partial curve]

Question: With `Cc1nn(-c2ccccc2)c(Cl)c1C1C(C#N)=C(N)OC2=C1C(=O)CCC2` (centres undefined) as the compound, how does the cell number change read?
Answer: -16.3%

Question: What about the AC50 [2] of the same compound?
Answer: 18.4 µM [falling, single point]

Question: With `CCOc1ccccc1N(C(=O)CNC(=O)c1ccco1)C(C(=O)NC1CCCC1)c1ccncc1` (centres undefined) as the compound, how does the cell number change read?
Answer: 2.08%

Question: Which cell number change does the source give for `Nc1ncnc(Sc2ccccc2)c1[N+](=O)[O-]` here?
Answer: -10.2%

Question: And the AC50 [2]?
Answer: 16.4 µM [falling, single point]

Question: Which cell number change does the source give for `O=C(N=Nc1c(O)[nH]c2ccc(Cl)cc12)c1cc(-c2cccs2)nc2ccccc12` here?
Answer: -33.9%

Question: What about the AC50 [1] of the same compound?
Answer: 18.4 µM [falling, partial curve, poor fit]

Question: And the AC50 [2]?
Answer: 8.2 µM [falling, partial curve, poor fit]

Question: With `Cn1cc([N+](=O)[O-])c(C(=O)N/N=C\c2c[nH]c3ccccc23)n1` as the compound, how does the cell number change read?
Answer: 167%

Question: What about the AC50 [1] of the same compound?
Answer: 4.61 µM [falling, single point]

Question: And the AC50 [2]?
Answer: 2.31 µM [falling, partial curve, poor fit]

Question: For `CS(=O)(=O)N(CC(=O)N1CCc2ccccc2C1)Cc1ccccc1`, which cell number change is on record?
Answer: 114%

Question: What about the AC50 [1] of the same compound?
Answer: 29.1 µM [rising, single point]

Question: With `CCOCCCNC(=O)c1ccc(OC(C)=O)cc1` as the compound, how does the cell number change read?
Answer: -2.77%

Question: Which results are given for `Cc1cccc(N(C)C(=O)CN(C)S(=O)(=O)c2ccc3c(c2)c(=O)n(C)c(=O)n3C)c1`?
Answer: cell number change: -19.2%; AC50 [2]: 0.13 µM [falling, full curve, poor fit]

Question: Which results are given for `CN(C)S(=O)(=O)c1cccc(NC(=O)/C=C/c2ccc(S(=O)(=O)N3CCOCC3)cc2)c1`?
Answer: cell number change: -45.9%; AC50 [1]: 20.6 µM [falling, partial curve]
